Measurements taken from patent US20100267626A1, “METHODS AND COMPOSITIONS FOR MEASURING WNT ACTIVATION AND FOR TREATING WNT-RELATED CANCERS” (Novartis AG, priority 2007, published 2010).
These are yes or no findings as the source states them, for the method shown. For some of these results: In cells and extracts the contact can be indirect. Some binding calls cover weakened binding; strength is not graded here. One block for each substance: values may come before it.

Sequences of proteins named here, by UniProt entry; tags and fusion partners are left off. A change or cut given only in a name is not applied to a line headed by its entry.
UniProt Q9Y2T1: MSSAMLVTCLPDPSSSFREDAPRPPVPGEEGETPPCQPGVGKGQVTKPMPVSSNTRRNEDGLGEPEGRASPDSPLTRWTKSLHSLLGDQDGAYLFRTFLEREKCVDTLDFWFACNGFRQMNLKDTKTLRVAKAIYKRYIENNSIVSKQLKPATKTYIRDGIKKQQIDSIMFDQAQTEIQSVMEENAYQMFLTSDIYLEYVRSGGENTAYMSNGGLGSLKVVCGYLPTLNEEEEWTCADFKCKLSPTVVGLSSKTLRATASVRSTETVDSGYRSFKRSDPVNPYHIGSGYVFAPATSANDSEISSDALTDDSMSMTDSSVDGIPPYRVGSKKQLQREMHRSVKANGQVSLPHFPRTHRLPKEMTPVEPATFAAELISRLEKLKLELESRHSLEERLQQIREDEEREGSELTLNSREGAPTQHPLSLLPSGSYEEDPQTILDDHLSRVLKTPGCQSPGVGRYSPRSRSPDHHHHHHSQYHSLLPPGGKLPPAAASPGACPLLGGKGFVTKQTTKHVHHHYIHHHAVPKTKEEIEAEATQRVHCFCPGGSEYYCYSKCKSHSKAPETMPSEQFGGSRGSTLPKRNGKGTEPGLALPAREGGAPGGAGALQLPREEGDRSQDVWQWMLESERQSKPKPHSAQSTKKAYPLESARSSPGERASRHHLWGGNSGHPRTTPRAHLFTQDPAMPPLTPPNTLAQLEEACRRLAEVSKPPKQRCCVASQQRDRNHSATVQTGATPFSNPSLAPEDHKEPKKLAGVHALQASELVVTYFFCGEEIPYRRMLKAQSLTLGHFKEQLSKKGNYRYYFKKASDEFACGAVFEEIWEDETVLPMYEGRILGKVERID
UniProt O95271: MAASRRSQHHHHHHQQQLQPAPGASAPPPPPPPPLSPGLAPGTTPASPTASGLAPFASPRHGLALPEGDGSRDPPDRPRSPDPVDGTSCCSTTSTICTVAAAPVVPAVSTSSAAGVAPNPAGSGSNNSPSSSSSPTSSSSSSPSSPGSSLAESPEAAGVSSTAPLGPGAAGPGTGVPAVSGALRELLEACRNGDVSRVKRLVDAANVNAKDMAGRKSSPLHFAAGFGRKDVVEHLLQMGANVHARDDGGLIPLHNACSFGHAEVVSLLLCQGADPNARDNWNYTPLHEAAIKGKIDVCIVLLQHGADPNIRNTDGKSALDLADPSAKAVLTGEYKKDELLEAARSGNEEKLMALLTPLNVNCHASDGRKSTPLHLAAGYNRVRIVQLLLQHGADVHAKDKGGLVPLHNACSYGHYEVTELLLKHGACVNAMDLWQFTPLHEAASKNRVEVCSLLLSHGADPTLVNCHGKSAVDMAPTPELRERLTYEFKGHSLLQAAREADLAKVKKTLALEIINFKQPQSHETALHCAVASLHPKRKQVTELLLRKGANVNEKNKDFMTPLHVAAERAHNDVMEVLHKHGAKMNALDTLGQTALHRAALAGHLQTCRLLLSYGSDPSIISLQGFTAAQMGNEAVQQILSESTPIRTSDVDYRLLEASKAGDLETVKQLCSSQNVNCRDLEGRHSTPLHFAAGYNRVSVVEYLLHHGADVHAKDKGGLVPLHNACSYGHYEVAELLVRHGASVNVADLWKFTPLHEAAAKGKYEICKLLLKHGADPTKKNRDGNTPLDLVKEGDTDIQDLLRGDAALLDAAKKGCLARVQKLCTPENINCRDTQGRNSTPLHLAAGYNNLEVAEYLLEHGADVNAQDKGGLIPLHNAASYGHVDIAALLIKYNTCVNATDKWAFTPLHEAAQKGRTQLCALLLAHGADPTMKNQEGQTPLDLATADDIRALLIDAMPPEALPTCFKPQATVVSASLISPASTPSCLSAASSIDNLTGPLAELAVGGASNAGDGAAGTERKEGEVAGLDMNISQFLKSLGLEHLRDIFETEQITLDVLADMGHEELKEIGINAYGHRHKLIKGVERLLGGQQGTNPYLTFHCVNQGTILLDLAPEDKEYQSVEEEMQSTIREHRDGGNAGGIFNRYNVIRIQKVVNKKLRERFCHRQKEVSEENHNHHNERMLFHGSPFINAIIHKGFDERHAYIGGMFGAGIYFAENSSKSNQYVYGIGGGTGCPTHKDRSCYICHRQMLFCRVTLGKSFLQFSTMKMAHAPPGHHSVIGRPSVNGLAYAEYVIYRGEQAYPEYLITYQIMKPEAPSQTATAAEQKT
UniProt O35625: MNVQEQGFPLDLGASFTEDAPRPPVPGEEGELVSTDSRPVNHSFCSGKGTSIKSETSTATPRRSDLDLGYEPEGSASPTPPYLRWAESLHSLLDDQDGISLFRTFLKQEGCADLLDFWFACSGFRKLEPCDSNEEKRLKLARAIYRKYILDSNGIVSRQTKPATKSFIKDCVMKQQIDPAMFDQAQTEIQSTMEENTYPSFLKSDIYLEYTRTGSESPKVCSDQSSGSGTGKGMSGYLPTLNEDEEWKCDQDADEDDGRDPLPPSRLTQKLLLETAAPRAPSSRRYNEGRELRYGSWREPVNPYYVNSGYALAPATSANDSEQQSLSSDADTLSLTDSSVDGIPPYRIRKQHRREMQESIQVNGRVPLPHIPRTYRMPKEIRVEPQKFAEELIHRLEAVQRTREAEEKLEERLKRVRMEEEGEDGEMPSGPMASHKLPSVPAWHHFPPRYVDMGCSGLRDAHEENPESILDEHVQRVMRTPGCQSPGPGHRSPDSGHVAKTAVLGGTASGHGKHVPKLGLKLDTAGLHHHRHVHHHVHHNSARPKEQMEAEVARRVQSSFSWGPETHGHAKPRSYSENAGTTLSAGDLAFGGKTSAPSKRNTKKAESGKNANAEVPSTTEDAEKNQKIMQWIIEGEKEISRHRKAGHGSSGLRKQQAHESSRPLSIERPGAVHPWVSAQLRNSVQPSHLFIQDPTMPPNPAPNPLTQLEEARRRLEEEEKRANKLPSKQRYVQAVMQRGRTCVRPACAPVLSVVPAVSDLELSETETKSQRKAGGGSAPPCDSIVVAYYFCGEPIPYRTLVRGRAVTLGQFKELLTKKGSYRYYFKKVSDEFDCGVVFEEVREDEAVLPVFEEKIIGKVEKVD

Key:
[1] = target: Axin2, endogenous protein in SW480 cells (human) (UniProt Q9Y2T1); assay: co-immunoprecipitation with anti-Axin2 antibody from SW480 lysate, immunoblot
[2] = target: Axin2, endogenous protein in SW480 cells (human) (UniProt Q9Y2T1); assay: co-immunoprecipitation of endogenous proteins from SW480 lysate
[3] = target: T1, TNKS2, yeast two-hybrid construct (UniProt Q9H2K2); assay: yeast two-hybrid, LacZ (X-gal) filter lift
T1 sequence (looked up): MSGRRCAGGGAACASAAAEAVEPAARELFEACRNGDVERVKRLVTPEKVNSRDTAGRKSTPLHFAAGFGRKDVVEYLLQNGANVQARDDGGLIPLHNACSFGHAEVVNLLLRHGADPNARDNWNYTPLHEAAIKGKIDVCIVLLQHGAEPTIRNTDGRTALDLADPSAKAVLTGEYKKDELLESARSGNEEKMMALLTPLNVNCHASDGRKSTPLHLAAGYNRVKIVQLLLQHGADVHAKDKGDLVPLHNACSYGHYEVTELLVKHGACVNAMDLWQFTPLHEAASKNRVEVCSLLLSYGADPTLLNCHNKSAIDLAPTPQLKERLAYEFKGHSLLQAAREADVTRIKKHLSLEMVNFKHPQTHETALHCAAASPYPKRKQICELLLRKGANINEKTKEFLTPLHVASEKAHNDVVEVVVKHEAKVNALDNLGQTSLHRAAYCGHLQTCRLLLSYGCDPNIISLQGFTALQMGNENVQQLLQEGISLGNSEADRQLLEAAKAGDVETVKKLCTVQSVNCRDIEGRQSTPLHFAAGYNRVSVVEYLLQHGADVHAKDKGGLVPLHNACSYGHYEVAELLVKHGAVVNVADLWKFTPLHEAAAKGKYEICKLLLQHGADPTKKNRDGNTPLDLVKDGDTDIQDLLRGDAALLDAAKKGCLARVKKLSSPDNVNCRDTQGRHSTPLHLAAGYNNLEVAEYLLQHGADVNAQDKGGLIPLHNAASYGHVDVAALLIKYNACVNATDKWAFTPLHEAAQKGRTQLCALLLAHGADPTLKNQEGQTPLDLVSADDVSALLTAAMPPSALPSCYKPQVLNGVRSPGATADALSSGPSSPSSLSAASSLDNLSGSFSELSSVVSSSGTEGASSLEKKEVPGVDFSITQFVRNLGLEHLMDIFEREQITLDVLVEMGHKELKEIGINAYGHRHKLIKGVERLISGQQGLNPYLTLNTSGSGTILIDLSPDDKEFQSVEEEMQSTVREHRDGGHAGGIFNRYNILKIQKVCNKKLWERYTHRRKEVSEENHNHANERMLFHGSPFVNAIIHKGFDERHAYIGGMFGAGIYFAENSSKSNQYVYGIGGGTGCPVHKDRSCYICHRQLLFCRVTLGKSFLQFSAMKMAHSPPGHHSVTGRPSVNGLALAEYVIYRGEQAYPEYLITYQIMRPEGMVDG

[4] = target: TNKS1 (human), yeast two-hybrid prey in pGAD-T7 (human) (UniProt O95271); assay: yeast two-hybrid, LacZ (X-gal) filter lift
[5] = target: Flag-TNKS1 (human TNKS1 with FLAG epitope at the amino terminus), overexpressed in HEK293 cells (human) (UniProt O95271); assay: co-immunoprecipitation with anti-Flag antibodies from transfected HEK293 cells
[6] = target: Flag-TNKS1 (human TNKS1 with FLAG epitope at the amino terminus), overexpressed in HEK293 cells (human) (UniProt O95271); assay: GST pull-down: GST-Axin1 fusion on glutathione-agarose beads, lysate of HEK293 cells overexpressing Flag-TNKS1
[7] = target: Axin1 (mouse), yeast two-hybrid bait in pGBK-T7 (mouse) (UniProt O35625); assay: yeast two-hybrid with TNKS1 fragments

Substance: TNKS1 (Tankyrase 1), endogenous protein in SW480 cells (from UniProt O95271 1-1327) (enzyme)
binding [1]: binds | binding [2]: binds

Substance: Axin1 construct transfected into HEK293 cells for co-immunoprecipitation with TNKS1 (from UniProt O35625 1-863)
binding [5]: binds

Substance: GST-AxinN (amino-terminal 87 amino acid residues of Axin1 fused to GST) (from UniProt O35625 1-87)
binding [6]: binds

Now from value to substance:

binding [3]: binds | binding [4]: binds
Substance: Axin1 (mouse), yeast two-hybrid bait in pGBK-T7 (from UniProt O35625 1-863)

binding [7]: binds
Substance: TNKS1 region spanning III, IV, and V ankyrin repeat domains, yeast two-hybrid fragment (from UniProt O95271 488-957)
